Reference: patent US20190055321A1
These are yes or no findings as the source states them, for the method shown. Some binding calls cover weakened binding; strength is not graded here.

Sequences of proteins named here, by UniProt entry; tags and fusion partners are left off. Residues count along the entry.
UniProt P20334, residues 24-256: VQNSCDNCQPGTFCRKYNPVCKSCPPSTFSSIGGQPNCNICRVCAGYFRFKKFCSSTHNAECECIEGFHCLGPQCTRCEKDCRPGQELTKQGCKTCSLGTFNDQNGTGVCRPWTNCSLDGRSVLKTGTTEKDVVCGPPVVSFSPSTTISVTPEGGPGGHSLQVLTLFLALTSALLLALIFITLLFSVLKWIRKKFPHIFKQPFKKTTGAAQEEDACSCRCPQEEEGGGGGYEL

Molecular target: CD137 on CD8+ ConA activated splenocytes / activated OT-1 CD8 T cells (UniProt P20334)
Experiment: flow cytometry on CD8+ ConA activated splenocytes, mean fluorescence units, Alexa 488 secondary

binding: binds
B1: CD137 Ab proper (anti-CD137 antibody, chimeric, rat variable regions and mouse IgG1 heavy chain constant region) (antibody, V domains shown)
VH: QVQLKEAGPGLVQPTQTLSLTCTVSGFSLTSDGVHWIRQPPGKGLEWMGIIYYDGGTDYNSAIKSRLSISRDTSKSQVFLKINSLQTDDTAMYYCARIHFDYWGQGVMVTVSS
VL: EIVLTQSPTTIAASPGEKVTITCRASSSVSYMYWYQQKSGASPKLWIYDTSKLASGVPNRFSGSGSGTSYSLAINTMETEDAATYYCQQWSSTPLTFGSGTKLEIKR
